Results taken from patent US10064928B2, “Peptides and combination of peptides for use in immunotherapy against CLL and other cancers” (IMMATICS BIOTECHNOLOGIES GMBH, priority 2015, dated 2018).

Columns and labels:
[1] = system: other tumor types (e.g. non-Hodgkin lymphoma, lung cancer); experiment: Presentation of the peptides on additional tumor types (LC-MS, Tables 4A/4B, FIG. 1); parameters: species or system human; details: for Other relevant organs/diseases: Table 4A: additional tumor types where the peptide was over-presented on more than 5% of the measured tumor samples, or presented on more than 5% with ratio of geometric means tumor vs normal tissues larger than 3; for Additional Entities: Table 4B: additional tumour types with over-presentation (including specific presentation) on more than 5% of the measured tumour samples, or presentation on more than 5% with ratio of geometric means tumour vs normal tissues larger than 3, extended normal tissue panel
[2] = system: CLL samples compared to a panel of normal tissues; experiment: Identification and label-free relative LC-MS quantitation of HLA-presented peptides (presentation profiles and scores); parameters: species or system human; key: very highly over-presented on tumors compared to a panel of normal tissues (+++); highly over-presented on tumors compared to a panel of normal tissues (++); over-presented on tumors compared to a panel of normal tissues (+); details: presentation score; over-presentation on tumors (CLL samples) compared to a panel of normal tissues

With “228 (FLGGLSPGV; listed as Homo sapiens) [compound 228]” the Other relevant organs/diseases [1] was “NHL, Esophageal Cancer”, the “Additional Entities” value [1] was “SCLC, BRCA, Uterine Cancer, AML, HNSCC” and the “Peptide Presentation” value [2] was “++”.

“86 (HLYPGAVTI; listed as Homo sapiens) [compound 86]” was tested, and the Other relevant organs/diseases [1] was “HCC, NHL”, the “Additional Entities” value [1] was “AML” and the “Peptide Presentation” value [2] was “+++”.

“359 (FMQDPMEVFV; listed as Homo sapiens) [compound 359]” was tested, and the “Additional Entities” value [1] was “Melanoma, NHL, NSCLC, OC” and the “Peptide Presentation” value [2] was “++”.

With “13 (VVDGMPPGV; listed as Homo sapiens) [compound 13]” the Other relevant organs/diseases [1] was “NHL”, the “Additional Entities” value [1] was “BRCA, Uterine Cancer” and the “Peptide Presentation” value [2] was “++”.

With “297 (FLVEPQEDTRL; listed as Homo sapiens) [compound 297]” the Other relevant organs/diseases [1] was “NHL, Melanoma” and the “Peptide Presentation” value [2] was “++”.

For “12 (ALGEDEITL; listed as Homo sapiens) [compound 12]”, the Other relevant organs/diseases [1] was “NHL, AML, Melanoma” and the “Peptide Presentation” value [2] was “+++”.

For “289 (ILEEQPMDMLL; listed as Homo sapiens) [compound 289]”, the “Additional Entities” value [1] was “Uterine Cancer” and the “Peptide Presentation” value [2] was “+++”.

With “88 (ILDEIGADVQA; listed as Homo sapiens) [compound 88]” the Other relevant organs/diseases [1] was “PC, NHL” and the “Peptide Presentation” value [2] was “+++”.

For “327 (VLIKWFPEV; listed as Homo sapiens) [compound 327]”, the Other relevant organs/diseases [1] was “NHL”, the “Additional Entities” value [1] was “Uterine Cancer” and the “Peptide Presentation” value [2] was “+++”.

In the case of “244 (ILQALAVHL; listed as Homo sapiens) [compound 244]”, the Other relevant organs/diseases [1] is reported as “NHL, AML, OC” and the “Peptide Presentation” value [2] is reported as “++”.

“363 (ITTEVVNELYV; listed as Homo sapiens) [compound 363]” was tested, and the Other relevant organs/diseases [1] was “NHL, Melanoma”, the “Additional Entities” value [1] was “BRCA” and the “Peptide Presentation” value [2] was “+”.

“298 (IILPVEVEV; listed as Homo sapiens) [compound 298]” was tested, and the Other relevant organs/diseases [1] was “SCLC, NHL, AML, Urinary bladder cancer”, the “Additional Entities” value [1] was “CRC, HNSCC” and the “Peptide Presentation” value [2] was “+++”.

For “160 (SLSFLVPSL; listed as Homo sapiens) [compound 160]”, the Other relevant organs/diseases [1] was “NHL, AML, Urinary bladder cancer”, the “Additional Entities” value [1] was “Uterine Cancer” and the “Peptide Presentation” value [2] was “+++”.

With “371 (SLADDSVLERL; listed as Homo sapiens) [compound 371]” the Other relevant organs/diseases [1] was “RCC, HCC, NHL, AML, Esophageal Cancer, Urinary bladder cancer” and the “Peptide Presentation” value [2] was “+”.

“3 (VIAELPPKV; listed as Homo sapiens) [compound 3]” was tested, and the Other relevant organs/diseases [1] was “NHL” and the “Peptide Presentation” value [2] was “+++”.

With “11 (ALFTFSPLTV; listed as Homo sapiens) [compound 11]” the “Additional Entities” value [1] was “AML, HNSCC, NHL, NSCLC, OC, SCLC” and the “Peptide Presentation” value [2] was “+++”.

“139 (NLTDVVEKL; listed as Homo sapiens) [compound 139]” was tested, and the Other relevant organs/diseases [1] was “RCC, NHL” and the “Peptide Presentation” value [2] was “+++”.

With “72 (GLLDAGKMYV; listed as Homo sapiens) [compound 72]” the Other relevant organs/diseases [1] was “NHL, Melanoma” and the “Peptide Presentation” value [2] was “+++”.

For “346 (VLVQVSPSL; listed as Homo sapiens) [compound 346]”, the Other relevant organs/diseases [1] was “RCC, NHL, AML, Gallbladder Cancer, Bile Duct Cancer”, the “Additional Entities” value [1] was “HNSCC” and the “Peptide Presentation” value [2] was “+++”.

With “374 (VLSVITEEL; listed as Homo sapiens) [compound 374]” the Other relevant organs/diseases [1] was “NHL, AML”, the “Additional Entities” value [1] was “SCLC, HCC, PrC, Urinary Bladder Cancer, Uterine Cancer” and the “Peptide Presentation” value [2] was “++”.

In the case of “211 (LIDVKPLGV; listed as Homo sapiens) [compound 211]”, the Other relevant organs/diseases [1] is reported as “NHL, BRCA, Melanoma”, the “Additional Entities” value [1] is reported as “RCC, Brain Cancer, HCC, Esophageal Cancer, HNSCC” and the “Peptide Presentation” value [2] is reported as “+++”.

For “213 (RLLYQLVFL; listed as Homo sapiens) [compound 213]”, the Other relevant organs/diseases [1] was “NHL, Esophageal Cancer, Urinary bladder cancer, Gallbladder Cancer, Bile Duct Cancer” and the “Peptide Presentation” value [2] was “++”.

In the case of “261 (SLVEAQGWLV; listed as Homo sapiens) [compound 261]”, the Other relevant organs/diseases [1] is reported as “NHL”, the “Additional Entities” value [1] is reported as “AML” and the “Peptide Presentation” value [2] is reported as “++”.

In the case of “273 (VLGEYSYLL; listed as Homo sapiens) [compound 273]”, the “Additional Entities” value [1] is reported as “NHL, HNSCC” and the “Peptide Presentation” value [2] is reported as “+”.

In the case of “231 (FLYIRQLAI; listed as Homo sapiens) [compound 231]”, the Other relevant organs/diseases [1] is reported as “AML”, the “Additional Entities” value [1] is reported as “Uterine Cancer” and the “Peptide Presentation” value [2] is reported as “+”.

For “32 (FIDKFTPPV; listed as Homo sapiens) [compound 32]”, the Other relevant organs/diseases [1] was “NHL” and the “Peptide Presentation” value [2] was “+++”.

“41 (FLDPSLDPLL; listed as Homo sapiens) [compound 41]” was tested, and the “Additional Entities” value [1] was “Uterine Cancer” and the “Peptide Presentation” value [2] was “+++”.

In the case of “202 (YVDDVFLRV; listed as Homo sapiens) [compound 202]”, the Other relevant organs/diseases [1] is reported as “Urinary bladder cancer”, the “Additional Entities” value [1] is reported as “AML, HNSCC” and the “Peptide Presentation” value [2] is reported as “+++”.

“125 (LLLEIGEVGKLFV; listed as Homo sapiens) [compound 125]” was tested, and the Other relevant organs/diseases [1] was “NHL”, the “Additional Entities” value [1] was “BRCA” and the “Peptide Presentation” value [2] was “++”.

For “227 (FLAEASVMTQL; listed as Homo sapiens) [compound 227]”, the Other relevant organs/diseases [1] was “NHL” and the “Peptide Presentation” value [2] was “++”.

“226 (AMNISVPQV; listed as Homo sapiens) [compound 226]” was tested, and the “Additional Entities” value [1] was “AML, PrC, Brain Cancer, Gallbladder Cancer, CCC, HNSCC, NHL, NSCLC, OC, SCLC, Uterine Cancer” and the “Peptide Presentation” value [2] was “+”.

“40 (FLDEDDMSL; listed as Homo sapiens) [compound 40]” was tested, and the Other relevant organs/diseases [1] was “SCLC, NHL, Urinary bladder cancer”, the “Additional Entities” value [1] was “HNSCC” and the “Peptide Presentation” value [2] was “+”.

For “99 (ILIFHSVAL; listed as Homo sapiens) [compound 99]”, the Other relevant organs/diseases [1] was “NHL, AML” and the “Peptide Presentation” value [2] was “+++”.

With “217 (ALDEPPYLTV; listed as Homo sapiens) [compound 217]” the Other relevant organs/diseases [1] was “NHL, Melanoma”, the “Additional Entities” value [1] was “AML” and the “Peptide Presentation” value [2] was “+”.

In the case of “166 (TLDPNQVSL; listed as Homo sapiens) [compound 166]”, the Other relevant organs/diseases [1] is reported as “AML” and the “Peptide Presentation” value [2] is reported as “+++”.

In the case of “101 (ILVVIEPLL; listed as Homo sapiens) [compound 101]”, the Other relevant organs/diseases [1] is reported as “NHL”, the “Additional Entities” value [1] is reported as “Uterine Cancer” and the “Peptide Presentation” value [2] is reported as “+++”.

In the case of “362 (ILTELGGFEV; listed as Homo sapiens) [compound 362]”, the Other relevant organs/diseases [1] is reported as “NHL”, the “Additional Entities” value [1] is reported as “AML, PrC, BRCA, PC, CRC, HCC, HNSCC, Melanoma, NSCLC, OC, Esophageal Cancer, GC, RCC, SCLC, Urinary Bladder Cancer, Uterine Cancer” and the “Peptide Presentation” value [2] is reported as “+”.

With “384 (YMIGSEVGNYL; listed as Homo sapiens) [compound 384]” the Other relevant organs/diseases [1] was “NHL, Urinary bladder cancer”, the “Additional Entities” value [1] was “SCLC, Uterine Cancer” and the “Peptide Presentation” value [2] was “+”.

“130 (LLVLIPVYL; listed as Homo sapiens) [compound 130]” was tested, and the Other relevant organs/diseases [1] was “NHL, Melanoma”, the “Additional Entities” value [1] was “Uterine Cancer” and the “Peptide Presentation” value [2] was “+++”.

With “15 (ALPEVSVEA; listed as Homo sapiens) [compound 15]” the Other relevant organs/diseases [1] was “NHL, AML, Melanoma”, the “Additional Entities” value [1] was “Esophageal Cancer” and the “Peptide Presentation” value [2] was “+”.

In the case of “240 (ILARDILEI; listed as Homo sapiens) [compound 240]”, the Other relevant organs/diseases [1] is reported as “NHL, Urinary bladder cancer”, the “Additional Entities” value [1] is reported as “Melanoma” and the “Peptide Presentation” value [2] is reported as “++”.

For “27 (AVLGLVWLL; listed as Homo sapiens) [compound 27]”, the Other relevant organs/diseases [1] was “NSCLC, NHL, Uterine Cancer”, the “Additional Entities” value [1] was “HNSCC” and the “Peptide Presentation” value [2] was “++”.

With “164 (SVHKGFAFV; listed as Homo sapiens) [compound 164]” the Other relevant organs/diseases [1] was “NSCLC, RCC, Brain Cancer, GC, AML, Esophageal Cancer, Urinary bladder cancer, Uterine Cancer”, the “Additional Entities” value [1] was “CRC, Melanoma, HNSCC” and the “Peptide Presentation” value [2] was “+++”.

In the case of “103 (KLGGTPAPA; listed as Homo sapiens) [compound 103]”, the Other relevant organs/diseases [1] is reported as “NHL” and the “Peptide Presentation” value [2] is reported as “++”.

In the case of “219 (ALLNLLESA; listed as Homo sapiens) [compound 219]”, the Other relevant organs/diseases [1] is reported as “NHL, AML, OC” and the “Peptide Presentation” value [2] is reported as “++”.

For “24 (AMAGDVVYA; listed as Homo sapiens) [compound 24]”, the Other relevant organs/diseases [1] was “NHL” and the “Peptide Presentation” value [2] was “+++”.

In the case of “350 (ALEDRVWEL; listed as Homo sapiens) [compound 350]”, the Other relevant organs/diseases [1] is reported as “NHL, Esophageal Cancer” and the “Peptide Presentation” value [2] is reported as “+”.

For “43 (FLLGPEALSFA; listed as Homo sapiens) [compound 43]”, the Other relevant organs/diseases [1] was “NHL, AML” and the “Peptide Presentation” value [2] was “+++”.

In the case of “8 (ALAASALPALV; listed as Homo sapiens) [compound 8]”, the “Additional Entities” value [1] is reported as “AML, HNSCC” and the “Peptide Presentation” value [2] is reported as “+++”.

For “360 (HLIDTNKIQL; listed as Homo sapiens) [compound 360]”, the “Additional Entities” value [1] was “NHL, NSCLC” and the “Peptide Presentation” value [2] was “+”.

In the case of “340 (KLLEEICNL; listed as Homo sapiens) [compound 340]”, the “Additional Entities” value [1] is reported as “Melanoma, Uterine Cancer, AML, NHL” and the “Peptide Presentation” value [2] is reported as “++”.
